Measured values taken from PubChem BioAssay AID2685 (National Center for Advancing Translational Sciences (NCATS), 2010).
Several values for one entry are separate records, joined by “and”; a condition that tells them apart may be missing. Identical values can stand only once. Some of the results follow. These are further read-outs of the screen, such as a control signal, another cell line or another target. No call is given for them. Compounds called inactive in the main read-out are mostly missing here. Words in brackets tell the shape of the fitted curve; partial curves, single points and poor fits give uncertain potencies.

Experiment: qHTS Assay for Lipid Storage Modulators in Drosophila S3 Cells;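 for cell number change: cells counted by Cell Tracker Red CMTPX staining in the red channel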
Details: BODIPY lipid droplet fluorescence, 18-24 h; for cell number change: measured here: cell count max response, cells fed with added oleic acid
In short: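 Drosophila S3 cells got compounds at several concentrations plus oleic acid (400 uM solution). Laser-scanning cytometry with 488 nm excitation read lipid droplets at 500-530 nm and cells at 575-640 nm. Percent activity was relative to 20 uM Triacsin C.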

[1] = measured here: lipid fluorescence (Fed channel) AC50, cells fed with added oleic acid
[2] = measured here: cell number channel AC50, cells fed with added oleic acid

| SMILES | cell number change | AC50 [1] | AC50 [2] |
| --- | --- | --- | --- |
| COc1ccc(OCc2cc(C(=O)NCC(C)Oc3cccnc3)no2)c(Cl)c1 (configuration not stated) | -15.9% | – | – |
| COc1cc2[nH]c(=O)n(Cc3ccc(C(=O)N4CCC(N5CCCCC5)CC4)cc3)c(=O)c2cc1OC | – | 8.2 µM [falling, partial curve] | – |
| Cc1nn(Cc2ccccc2)c(C)c1C(=O)OCC(=O)c1cc(C)n(CC(F)(F)F)c1C | -43.9% | 1.84 µM [falling, partial curve] | 16.4 µM [falling, partial curve, poor fit] |
| CC(C)NC(=O)N1CCOCCOCCN(C(=O)NC(C)C)CCOCCOCC1 | -5.29% | 29.1 µM [falling, single point] | – |
| Cc1ccc(S(=O)(=O)N(CC(O)CN2CCOCC2)c2cc(Cl)ccc2Cl)cc1 (configuration not stated) | -11.7% | – | – |
| COCCNC(=O)CN(c1ccc(F)cc1)S(=O)(=O)c1ccc2c(c1)OCCO2 | – | – | 0.731 µM [rising, full curve, poor fit] |
| Cc1c(C(=O)N2CCCC2)c(S(=O)(=O)N2CCN(c3ccccc3F)CC2)c(C)n1C | -7.08% | 0.58 µM [rising, single point] | 7.31 µM [falling, single point] |
| COC(=O)c1ccc(NC(=O)COc2cccc3c2OC(C)(C)C3)cc1 | – | 0.164 µM [rising, full curve, poor fit] | 0.206 µM [rising, full curve, poor fit] |
| CC(=O)NC12CC3CC(C1)CC(C(=O)Nc1nc4c(C)cccc4s1)(C3)C2 | – | 1.16 µM [falling, full curve] | – |
| CO/N=C(/CNC(=O)c1cccc(Cl)c1)c1ccc(Cl)cc1 | – | 1.46 µM [rising, full curve, poor fit] | 6.51 µM [rising, single point] |
| COc1ccc(NC(=O)c2cc3c(s2)CCC3)cc1S(=O)(=O)N1CCOCC1 | 63% | 16.4 µM [rising, partial curve] | 25.9 µM [rising, single point] |
| COc1ccc(CCn2c(=N)c(C(=O)NCC3CCCO3)cc3c(=O)n4ccccc4nc32)cc1 (configuration not stated) | -0.472% | – | – |
| O=C1N(C2CCCC2)C[C@@H]2C[C@@H](c3cn[nH]c3-c3ccc(Cl)cc3)N3CCC[C@@]123 | -17.6% | 16.4 µM [falling, single point] | – |
| COc1ccc(C2=CC(=O)C[C@H](c3ccc(F)cc3)C2)c(F)c1F | -23.9% | 0.651 µM [rising, partial curve] | 0.164 µM [falling, full curve, poor fit] |
| COc1ccc(NC(=O)Cn2c(C(C)C)nc(C)cc2=O)cc1Cl | -23.8% | 25.9 µM [falling, single point] | 3.66 µM [rising, partial curve] |
| C(=C\c1ccccc1)/CN1CCN(c2ncnc3c2oc2ccccc23)CC1 | -22.4% | 32.6 µM [falling, single point] | – |
| COc1ccc(C2=Nn3c(nnc3-c3ccncc3)SC2)cc1 | 1.55% | 0.058 µM [rising, full curve] | – |
| NCCc1cnc[nH]1 | 10.8% and 6.52% | 6.51 µM [falling, full curve, poor fit] and 25.9 µM [rising, single point] | – |
| COC(=O)c1ccc(Nc2cc(C)nc(-c3ccccc3O)n2)cc1 | – | 0.517 µM [falling, partial curve, poor fit] | – |
| CN1CCN(C(=O)c2cc(Cl)ccc2Cl)CC1 | -2.18% | 29.1 µM [falling, single point] | – |

| SMILES | cell number change | AC50 [1] | AC50 [2] |
| --- | --- | --- | --- |
| Cc1ccc(Cn2c(=N)n(CC(=O)c3ccccc3)c3ccccc32)cc1 | -63.1% | – | 18.4 µM [falling, single point] |
| Cc1scc(C(=O)NNC(=S)NCc2ccccc2)c1C | -17.7% | 9.2 µM [rising, partial curve] | – |
| CCC(C(=O)OCC(=O)Nc1c(C)nn(-c2ccccc2)c1C)c1ccccc1 (configuration not stated) | 8.55% | 0.651 µM [falling, single point] | 0.651 µM [falling, single point] |
| CCc1ccc(NC(=O)CCNS(=O)(=O)c2cccs2)cc1 | 20.7% | 29.1 µM [rising, single point] | – |
| C/C=C/C(=O)OCC(=O)Nc1ccc(OC)c(Cl)c1 | -24.8% | – | – |
| O=C(Cn1nnc(-c2ccccc2)n1)NNC(=O)c1ccccc1 | 24.8% | 29.1 µM [rising, single point] | – |
| Cc1cc(C)nc(Nc2n[nH]c(-c3ccccc3Cl)n2)n1 | -4.22% | – | – |
| CCN1CCN(c2ncnc3c2c(-c2ccccc2)cn3-c2ccc(F)cc2)CC1 | -23.3% | 16.4 µM [falling, single point] | – |
| O=C(O)c1ccc(Nc2ccc([N+](=O)[O-])c3nonc23)cc1 | 8.52% | 25.9 µM [rising, single point] | – |
| COc1ccc(C(=O)COC(=O)[C@H](C)Nc2ccc(C(F)(F)F)cc2[N+](=O)[O-])c(OC)c1 | -33.8% | 29.1 µM [falling, single point] | 14.6 µM [falling, single point] |
| O=C(CSc1ncn[nH]1)N1c2ccccc2Sc2ccccc21 | -32.9% | – | 29.1 µM [falling, single point] |
| COc1ccc(CN2CCCC(CO)(Cc3cccc(Cl)c3)C2)cc1OC (configuration not stated) | 24.4% | 0.0651 µM [rising, full curve, poor fit] | – |
| O=C1[C@@H]2CSCN2C(=O)CN1CCc1cccc(F)c1 | -55.5% | 0.184 µM [falling, full curve, poor fit] | 29.1 µM [falling, single point] |
| O=C(COc1ccc(-c2ccccc2)cc1)Nc1cccnc1 | -30.9% | 6.51 µM [falling, full curve, poor fit] | 13 µM [falling, single point] |
| CCc1ccccc1NC(=O)CNC(=O)c1ccccc1OCc1c(C)noc1C | – | 29.1 µM [rising, single point] | – |
| CCCN1CCN(CCCNC(=S)Nc2ccc3nc(N4CCN(CC)CC4)cc(C)c3c2)CC1 | 34.4% | – | 0.58 µM [rising, full curve, poor fit] |
| Cc1ccc(NC(=O)c2sccc2C)cc1[N+](=O)[O-] | – | 0.651 µM [falling, partial curve, poor fit] | – |
| Nc1ccccc1SCC(=O)Nc1ccc2c(c1)OCO2 | -0.488% | – | – |
| NC(=O)c1cc(-c2csc(-c3cccnc3)n2)ccc1O | – | 6.51 µM [falling, partial curve] | – |
| COc1ccc(-c2nnn(CC(=O)N(Cc3cccs3)C(C)C(=O)NC3CCCC3)n2)cc1OC (configuration not stated) | 11% | 0.82 µM [rising, full curve, poor fit] | – |

| SMILES | cell number change | AC50 [1] | AC50 [2] |
| --- | --- | --- | --- |
| Cc1cc(C)c(C)c(S(=O)(=O)N2CCN(CC(=O)c3c(N)n(Cc4ccccc4)c(=O)n(C)c3=O)CC2)c1C | -23.2% | 16.4 µM [falling, partial curve] | – |
| COc1ccc(Cl)cc1NC(=O)c1cccc(NC(=O)CCC(=O)O)c1 | -2.76% | – | 0.291 µM [falling, full curve, poor fit] |
| CC1(C)CC(=O)C=C(NC2CCCC(O)C2)C1 (configuration not stated) | -41.8% | 16.4 µM [rising, partial curve] | 32.6 µM [falling, single point] |
| Cc1cccc(NC(=S)NNc2ncc(C(F)(F)F)cc2Cl)c1 | 2.65% | 6.51 µM [rising, single point] | – |
| CC(=NCCCNC1CCCCC1)C1=C(O)CC(C)(C)CC1=O | 6.08% | 29.1 µM [falling, single point] | – |
| O=C(Cc1ccc(-n2c(=O)c3sccc3n(Cc3ccc(F)cc3)c2=O)cc1)NCc1ccco1 | -12.7% | – | – |
| CN(C)c1ccc(N2C(=O)CC(Sc3ccccc3C(=O)O)C2=O)cc1 (configuration not stated) | 12.7% | 6.51 µM [rising, partial curve] | – |
| COc1ccccc1NC(=O)NCC(=O)Nc1c(C)cccc1C | – | – | 0.116 µM [rising, single point] |
| CCCCOCCCNCc1cccn1CCN1CCOCC1 | 24.1% | 5.8 µM [rising, partial curve] | – |
| CCN=C1S/C(=C\c2ccc(OC)c(OCC)c2)C(=O)N1CC | 1.23% | 6.51 µM [rising, single point] | – |
| CC1=C(C(=O)OCc2ccccc2)C(c2ccccc2Cl)NC(=O)N1C (configuration not stated) | -33.2% | 1.3 µM [falling, partial curve] | 5.17 µM [falling, partial curve, poor fit] |
| O=C(Nc1cccc(Cl)c1)OCc1cnc(Cl)s1 | -18.9% | – | 0.00517 µM [falling, full curve, poor fit] |
| CCc1cc2cc3c(cc2nc1SCC(=O)N1CCN(C(=O)c2ccco2)CC1)OCO3 | -20.6% | – | – |
| Cc1cccc(C)c1OCc1cc(C(=O)N2CCN(c3ccc(F)cc3)CC2)no1 | -37.8% | – | 29.1 µM [falling, single point] |
| CC1(C)Cc2c(C#N)c(SCc3ccccc3)nc(N3CCOCC3)c2CO1 | -3.24% | – | – |
| O=C(NCCN1C(=O)C2C3C=CC(C3)C2C1=O)Nc1ccccc1 (configuration not stated) | – | 0.58 µM [falling, single point] | – |
| Cc1ccc(C(C)C)c(OCC(=O)Nc2ccccc2N2CCN(C)CC2)c1 | -48% | 7.31 µM [falling, partial curve] | 6.51 µM [falling, partial curve] |
| CCOc1ccc(-c2cc(C(=O)N3CCCC3)c3ccccc3n2)cc1 | 10.4% | – | – |
| CCOc1ccc(C(=O)NCC(=O)NCC2CCCCC2)cc1OCC | 2.56% | 29.1 µM [rising, single point] | 2.31 µM [rising, partial curve, poor fit] |
